Results: article PMC9731497, “Identification of potent anti-Cryptosporidium new drug leads by screening traditional Chinese medicines” (PLOS Neglected Tropical Diseases, 2022)
Counter-ions that a name gives are not always drawn.

Assay: Host cell viability assay (Cell-Titer Glo)
Settings: human

Work on `CN1[C@@H]2CC[C@H]1C[C@@H](OC(=O)C(CO)c1ccccc1)C2` (stereo partly shown) [Atropine sulfate, reference compound] yielded a CC50 at 48 h of 17.7 µM.
